The target of assay [1] is urokinase-type plasminogen activator receptor (uPAR), endogenous in HKC-8 cells (human (endogenous in HKC-8)) (UniProt Q03405). Put plainly: co-IP; HKC-8 cells exposed to FXII (62 nM; ± 10 µM zinc) in the presence of equimolar (62 nM) or excess molar (120 nM) HK; FXII binding to uPAR determined by coimmunoprecipitation; only the binder purified.
Assay [2] has the same target. Put plainly: proximity ligation; PLA for uPAR and active integrin β1 in HKC-8 cells (FXII 62 nM with Zn2+ 10 µM for 24 h or not treated) and in F12-null HKC-8 cells transfected with WT-FXII, ∆Fib-II-FXII or empty vector.
For assay [3] the target is unchanged. Put plainly: co-IP; uPAR immunoprecipitated from HKC-8 cells exposed to purified human FXII (62 nM) with Zn2+ (10 µM) for 24 h or not treated; blots for active integrin β1, active integrin β3 and uPAR.
Assay [4] addresses urokinase-type plasminogen activator receptor (uPAR), endogenous in human kidney biopsies (human (endogenous in kidney biopsies)) (UniProt Q03405). Put plainly: proximity ligation; PLA on human kidney biopsy sections of nondiabetic controls and diabetic patients with DKD.
Assay [5] deals with T1, urokinase-type plasminogen activator receptor (uPAR), endogenous in mouse kidney (mouse (endogenous in kidney)) (UniProt P35456).
T1 sequence: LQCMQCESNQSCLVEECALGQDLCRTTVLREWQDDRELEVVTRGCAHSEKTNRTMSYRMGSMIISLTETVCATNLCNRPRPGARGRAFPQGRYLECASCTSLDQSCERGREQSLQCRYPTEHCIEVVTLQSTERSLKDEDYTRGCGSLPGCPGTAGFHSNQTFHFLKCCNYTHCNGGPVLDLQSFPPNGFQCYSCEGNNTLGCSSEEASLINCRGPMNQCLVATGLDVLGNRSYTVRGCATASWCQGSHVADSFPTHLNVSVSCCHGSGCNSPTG
The assay can be described thus: proximity ligation; PLA for uPAR and integrin β1 on kidneys of normoglycemic and hyperglycemic WT mice.

Protein sequences, listed by entry. Tags and fused reporters are not part of them. Lines headed by an entry give the natural chain unless they say otherwise; changes in a name come on top. Residues count along the entry.
UniProt P01042, residues 19-644: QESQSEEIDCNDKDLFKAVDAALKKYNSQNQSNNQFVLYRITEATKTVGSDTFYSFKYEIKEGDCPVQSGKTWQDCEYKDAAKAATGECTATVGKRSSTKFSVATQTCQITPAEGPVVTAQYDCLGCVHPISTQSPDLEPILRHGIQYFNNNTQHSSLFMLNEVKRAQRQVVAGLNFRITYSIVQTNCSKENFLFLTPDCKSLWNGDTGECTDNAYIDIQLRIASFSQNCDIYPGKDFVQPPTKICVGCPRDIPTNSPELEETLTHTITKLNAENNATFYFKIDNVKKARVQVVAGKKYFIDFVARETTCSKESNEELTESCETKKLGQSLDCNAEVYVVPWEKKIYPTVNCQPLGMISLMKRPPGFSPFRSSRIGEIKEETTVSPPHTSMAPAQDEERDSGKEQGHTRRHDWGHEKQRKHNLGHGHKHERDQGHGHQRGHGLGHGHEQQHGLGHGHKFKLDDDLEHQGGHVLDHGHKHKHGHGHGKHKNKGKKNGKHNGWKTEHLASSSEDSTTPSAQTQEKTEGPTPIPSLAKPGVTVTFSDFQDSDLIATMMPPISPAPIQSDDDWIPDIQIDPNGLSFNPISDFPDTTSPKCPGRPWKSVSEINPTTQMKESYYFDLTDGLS
UniProt P05556: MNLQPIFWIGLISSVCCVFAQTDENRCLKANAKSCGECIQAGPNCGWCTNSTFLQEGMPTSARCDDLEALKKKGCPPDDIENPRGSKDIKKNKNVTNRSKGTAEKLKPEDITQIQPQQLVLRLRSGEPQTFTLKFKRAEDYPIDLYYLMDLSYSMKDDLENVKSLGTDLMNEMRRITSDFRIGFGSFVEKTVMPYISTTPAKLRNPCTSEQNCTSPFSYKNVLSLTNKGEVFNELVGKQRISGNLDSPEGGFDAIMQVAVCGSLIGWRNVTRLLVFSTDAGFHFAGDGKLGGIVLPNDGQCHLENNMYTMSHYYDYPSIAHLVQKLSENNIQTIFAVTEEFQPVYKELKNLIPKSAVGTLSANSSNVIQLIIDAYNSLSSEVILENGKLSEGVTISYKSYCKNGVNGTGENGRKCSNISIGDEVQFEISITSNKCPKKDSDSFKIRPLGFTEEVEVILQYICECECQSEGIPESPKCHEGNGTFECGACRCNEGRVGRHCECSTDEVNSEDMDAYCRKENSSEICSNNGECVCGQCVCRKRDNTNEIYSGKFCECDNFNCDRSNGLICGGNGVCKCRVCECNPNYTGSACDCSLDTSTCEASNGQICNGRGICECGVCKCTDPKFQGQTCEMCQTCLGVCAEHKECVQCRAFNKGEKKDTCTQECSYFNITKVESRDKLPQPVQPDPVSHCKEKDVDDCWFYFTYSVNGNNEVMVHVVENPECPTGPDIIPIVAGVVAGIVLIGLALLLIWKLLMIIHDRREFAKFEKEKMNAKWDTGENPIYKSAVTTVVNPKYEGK
UniProt P09055, residues 21-798: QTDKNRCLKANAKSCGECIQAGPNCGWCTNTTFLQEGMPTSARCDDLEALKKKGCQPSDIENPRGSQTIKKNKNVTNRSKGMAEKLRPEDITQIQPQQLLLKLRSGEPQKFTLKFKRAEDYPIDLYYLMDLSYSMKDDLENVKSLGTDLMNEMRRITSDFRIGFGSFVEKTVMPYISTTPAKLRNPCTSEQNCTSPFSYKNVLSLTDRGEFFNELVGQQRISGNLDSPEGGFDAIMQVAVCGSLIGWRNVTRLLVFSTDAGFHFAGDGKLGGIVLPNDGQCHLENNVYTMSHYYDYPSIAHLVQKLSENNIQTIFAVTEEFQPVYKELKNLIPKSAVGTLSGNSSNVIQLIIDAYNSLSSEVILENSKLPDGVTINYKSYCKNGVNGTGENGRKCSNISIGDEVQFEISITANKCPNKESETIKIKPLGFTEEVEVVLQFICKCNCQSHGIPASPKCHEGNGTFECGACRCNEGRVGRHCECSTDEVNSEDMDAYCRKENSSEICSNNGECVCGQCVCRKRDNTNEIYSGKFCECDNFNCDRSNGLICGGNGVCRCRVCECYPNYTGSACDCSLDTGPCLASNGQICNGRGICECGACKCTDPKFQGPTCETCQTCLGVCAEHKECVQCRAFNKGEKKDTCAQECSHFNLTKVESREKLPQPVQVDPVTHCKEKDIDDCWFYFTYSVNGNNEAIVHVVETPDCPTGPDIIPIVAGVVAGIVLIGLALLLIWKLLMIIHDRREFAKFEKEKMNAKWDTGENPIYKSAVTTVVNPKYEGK

The target of assay [6] is T1, urokinase-type plasminogen activator receptor (uPAR), endogenous in mouse kidney (mouse (endogenous in kidney)). Put plainly: proximity ligation; PLA for uPAR and integrin β1 on kidneys of hyperglycemic F12-/- mice.
Assay [7] concerns the target urokinase-type plasminogen activator receptor (uPAR), endogenous in HKC-8 cells (human (endogenous in HKC-8)) (UniProt Q03405). Put plainly: co-IP; uPAR immunoprecipitated from HKC-8 cells exposed to purified human FXII (62 nM) with Zn2+ (10 µM) for 24 h, with and without pretreatment with peptides (300 µM, 1 h); blots for FXII and uPAR; only the binder purified.

Among the data in PMC11390906 are binding values, retold here.

No constants are given. Whether binding was seen depends on the method and setting. Binding seen in cells or lysates may run through a third protein. Some results given as binding are weak or reduced against the parent protein; the word gives no strength.

Consider “high molecular weight kininogen (HK) (from UniProt P01042 19-644)”, for which, in assay [1], the binding result is “binds”.

Consider “integrin β1, endogenous in HKC-8 cells (from UniProt P05556 21-798) (receptor)”, for which the binding result in assay [2] and in assay [3] was “binds” in each case.

Regarding “integrin β1, endogenous in human kidney biopsies (from UniProt P05556 21-798) (receptor)”, in assay [4], the binding entry is “binds”.

In the case of “integrin β1, endogenous in mouse kidney (from UniProt P09055 21-798) (receptor)”, the binding entry in assay [5] is given as “binds”; in assay [6], “binds weakly”.

HRQLYHKCTHKGR [FXII-based peptide HR13 (FN2 domain, residues 54-66)]: in assay [7], the binding result is “binds”.

On to PWCFVLNRDRLSWEY [FXII-based peptide PW15 (Kringle domain, residues 275-289)], for which the binding result in assay [7] was “binds”.
